Source: PubChem BioAssay AID1224828 (NIAID, 2016)
In all, the deposit lists about 17,000 reagents; below is an unselected part. In the full data, 762 (4.5%) were called active. 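Active calls include both raised and lowered p65 entry, mostly lowered; wells with fewer than 50 cells lack a z-score.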 Raw values are not corrected between plates. Reagent sequences are not shown.

Assay: 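Regulators linking TLR4 signalling to p65 nuclear translocation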 (primary screen)
Cell system: mouse RAW264.7 G9 macrophage reporter cells (GFP-p65, Tnf promoter-mCherry)
Reagents: siRNA pool against mouse genes, 100 nM
Duration: 2 days siRNA transfection, then 40 min LPS before fixation
Treatment: LPS (Salmonella minnesota R595) at 10 ng/ml
Detection: 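Imaged p65 nuclear translocation ratio, normalised to the plate median, converted to robust z-scores and averaged across two replicates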
Reading the numbers: p65 translocation robust z-score: higher = more nuclear NF-kappaB p65 after LPS than the plate median; nuclear/cytoplasmic p65 ratio: higher = more nuclear NF-kappaB p65
Hit rule: 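Called active when z exceeds 3.3 or falls under -1.56 (median of Tlr4 controls), giving activity score of at least 50; no calls for control wells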
Meaning of the calls: active = hit (p65 shift raised or lowered); inactive = no clear change

Knock-down of Brcc3dc gave: p65 translocation robust z-score -0.79; nuclear/cytoplasmic p65 ratio, rep 1 = 1.35; nuclear/cytoplasmic p65 ratio, rep 2 = 1.39; low cell count flag enough cells to score; inactive.
Knock-down of Tspyl4 gave: nuclear/cytoplasmic p65 ratio, rep 1 = 1.41; nuclear/cytoplasmic p65 ratio, rep 2 = 1.34; low cell count flag fewer than 50 cells per well; well left out of scoring; inactive.
For Wfdc1, the values are p65 translocation robust z-score -1.17; nuclear/cytoplasmic p65 ratio, rep 1 = 1.47; nuclear/cytoplasmic p65 ratio, rep 2 = 1.32; low cell count flag enough cells to score; inactive.
Silencing of Skint2 came out at: p65 translocation robust z-score 1; nuclear/cytoplasmic p65 ratio, rep 1 = 1.53; nuclear/cytoplasmic p65 ratio, rep 2 = 1.65; low cell count flag enough cells to score; inactive.
Mt2 showed p65 translocation robust z-score 0.27; nuclear/cytoplasmic p65 ratio, rep 1 = 1.49; nuclear/cytoplasmic p65 ratio, rep 2 = 1.37; low cell count flag enough cells to score; inactive.
Smim12 gave p65 translocation robust z-score -1.05; nuclear/cytoplasmic p65 ratio, rep 1 = 1.33; nuclear/cytoplasmic p65 ratio, rep 2 = 1.77; low cell count flag enough cells to score; inactive.
Against Or5g29, the values are nuclear/cytoplasmic p65 ratio, rep 1 = 1.28; nuclear/cytoplasmic p65 ratio, rep 2 = 1.19; low cell count flag fewer than 50 cells per well; well left out of scoring; inactive.
Depletion of Rarb gave: p65 translocation robust z-score 0.74; nuclear/cytoplasmic p65 ratio, rep 1 = 1.55; nuclear/cytoplasmic p65 ratio, rep 2 = 1.69; low cell count flag enough cells to score; inactive.
For Mcm5, the entry reads p65 translocation robust z-score 1.14; nuclear/cytoplasmic p65 ratio, rep 1 = 1.59; nuclear/cytoplasmic p65 ratio, rep 2 = 1.49; low cell count flag enough cells to score; inactive.
Depletion of Ddx5 gave: p65 translocation robust z-score -1.56; nuclear/cytoplasmic p65 ratio, rep 1 = 1.28; nuclear/cytoplasmic p65 ratio, rep 2 = 1.35; low cell count flag enough cells to score; inactive.
Knock-down of Cacna1a gave: p65 translocation robust z-score -0.61; nuclear/cytoplasmic p65 ratio, rep 1 = 1.49; nuclear/cytoplasmic p65 ratio, rep 2 = 1.56; low cell count flag enough cells to score; inactive.
Silencing of Rpl36al came out at: nuclear/cytoplasmic p65 ratio, rep 1 = 1.32; nuclear/cytoplasmic p65 ratio, rep 2 = 1.33; low cell count flag fewer than 50 cells per well; well left out of scoring; inactive.
Against Piga the deposit lists p65 translocation robust z-score -0.41; nuclear/cytoplasmic p65 ratio, rep 1 = 1.46; nuclear/cytoplasmic p65 ratio, rep 2 = 1.33; low cell count flag enough cells to score; inactive.
For Rhoc the deposit lists p65 translocation robust z-score -0.58; nuclear/cytoplasmic p65 ratio, rep 1 = 1.47; nuclear/cytoplasmic p65 ratio, rep 2 = 1.4; low cell count flag enough cells to score; inactive.
Silencing of Sptssb gave: p65 translocation robust z-score -0.8; nuclear/cytoplasmic p65 ratio, rep 1 = 1.41; nuclear/cytoplasmic p65 ratio, rep 2 = 1.36; low cell count flag enough cells to score; inactive.
Silencing of Gpx4 gave: nuclear/cytoplasmic p65 ratio, rep 1 = 1.48; nuclear/cytoplasmic p65 ratio, rep 2 = 1.4; low cell count flag fewer than 50 cells per well; well left out of scoring; inactive.
Silencing of Trim21 came out at: p65 translocation robust z-score 0.21; nuclear/cytoplasmic p65 ratio, rep 1 = 1.63; nuclear/cytoplasmic p65 ratio, rep 2 = 1.45; low cell count flag enough cells to score; inactive.
Depletion of Usp50 resulted in: p65 translocation robust z-score -0.11; nuclear/cytoplasmic p65 ratio, rep 1 = 1.22; nuclear/cytoplasmic p65 ratio, rep 2 = 1.33; low cell count flag enough cells to score; inactive.
Against Rrm2b, the values are p65 translocation robust z-score -0.69; nuclear/cytoplasmic p65 ratio, rep 1 = 1.45; nuclear/cytoplasmic p65 ratio, rep 2 = 1.39; low cell count flag enough cells to score; inactive.
Against Stac3, the entry reads p65 translocation robust z-score 1.18; nuclear/cytoplasmic p65 ratio, rep 1 = 1.55; nuclear/cytoplasmic p65 ratio, rep 2 = 1.75; low cell count flag enough cells to score; inactive.
After knock-down of Amph, the record shows p65 translocation robust z-score 0.19; nuclear/cytoplasmic p65 ratio, rep 1 = 1.63; nuclear/cytoplasmic p65 ratio, rep 2 = 1.72; low cell count flag enough cells to score; inactive.
Knock-down of Bpifb2 came out at: p65 translocation robust z-score -1.76; nuclear/cytoplasmic p65 ratio, rep 1 = 1.15; nuclear/cytoplasmic p65 ratio, rep 2 = 1.33; low cell count flag enough cells to score; active.
With knock-down of Grhl1, the record shows nuclear/cytoplasmic p65 ratio, rep 1 = 1.17; nuclear/cytoplasmic p65 ratio, rep 2 = 1.11; low cell count flag fewer than 50 cells per well; well left out of scoring; inactive.
Nefh gave p65 translocation robust z-score -0.19; nuclear/cytoplasmic p65 ratio, rep 1 = 1.39; nuclear/cytoplasmic p65 ratio, rep 2 = 1.34; low cell count flag enough cells to score; inactive.
For Or10c1 the deposit lists p65 translocation robust z-score -0.72; nuclear/cytoplasmic p65 ratio, rep 1 = 1.35; nuclear/cytoplasmic p65 ratio, rep 2 = 1.16; low cell count flag enough cells to score; inactive.
Against Mrpl58, the entry reads p65 translocation robust z-score -0.29; nuclear/cytoplasmic p65 ratio, rep 1 = 1.41; nuclear/cytoplasmic p65 ratio, rep 2 = 1.32; low cell count flag enough cells to score; inactive.
Silencing of Dbf4 resulted in: p65 translocation robust z-score 1.26; nuclear/cytoplasmic p65 ratio, rep 1 = 1.94; nuclear/cytoplasmic p65 ratio, rep 2 = 1.51; low cell count flag enough cells to score; inactive.
